Source: the supplement of paper PMC11098740
Structures can show the parent of a compound that is named as a salt. ± gives the standard deviation of the averaged measurements. The list shows a part of the results. Repeats are few or missing, and single values can be far off.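 The assay uses a mixed pool of 41 HAP1 clones in which 61 cancer-associated proteins bear intron-inserted fluorescent tags, and clones are distinguished by image pattern. Results are compared against DMSO-treated control wells, and the BRD4 degrader dBET6 is the positive control.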

The chains behind the UniProt entries cited, without tags or fusion partners.
UniProt O14980, whole entry: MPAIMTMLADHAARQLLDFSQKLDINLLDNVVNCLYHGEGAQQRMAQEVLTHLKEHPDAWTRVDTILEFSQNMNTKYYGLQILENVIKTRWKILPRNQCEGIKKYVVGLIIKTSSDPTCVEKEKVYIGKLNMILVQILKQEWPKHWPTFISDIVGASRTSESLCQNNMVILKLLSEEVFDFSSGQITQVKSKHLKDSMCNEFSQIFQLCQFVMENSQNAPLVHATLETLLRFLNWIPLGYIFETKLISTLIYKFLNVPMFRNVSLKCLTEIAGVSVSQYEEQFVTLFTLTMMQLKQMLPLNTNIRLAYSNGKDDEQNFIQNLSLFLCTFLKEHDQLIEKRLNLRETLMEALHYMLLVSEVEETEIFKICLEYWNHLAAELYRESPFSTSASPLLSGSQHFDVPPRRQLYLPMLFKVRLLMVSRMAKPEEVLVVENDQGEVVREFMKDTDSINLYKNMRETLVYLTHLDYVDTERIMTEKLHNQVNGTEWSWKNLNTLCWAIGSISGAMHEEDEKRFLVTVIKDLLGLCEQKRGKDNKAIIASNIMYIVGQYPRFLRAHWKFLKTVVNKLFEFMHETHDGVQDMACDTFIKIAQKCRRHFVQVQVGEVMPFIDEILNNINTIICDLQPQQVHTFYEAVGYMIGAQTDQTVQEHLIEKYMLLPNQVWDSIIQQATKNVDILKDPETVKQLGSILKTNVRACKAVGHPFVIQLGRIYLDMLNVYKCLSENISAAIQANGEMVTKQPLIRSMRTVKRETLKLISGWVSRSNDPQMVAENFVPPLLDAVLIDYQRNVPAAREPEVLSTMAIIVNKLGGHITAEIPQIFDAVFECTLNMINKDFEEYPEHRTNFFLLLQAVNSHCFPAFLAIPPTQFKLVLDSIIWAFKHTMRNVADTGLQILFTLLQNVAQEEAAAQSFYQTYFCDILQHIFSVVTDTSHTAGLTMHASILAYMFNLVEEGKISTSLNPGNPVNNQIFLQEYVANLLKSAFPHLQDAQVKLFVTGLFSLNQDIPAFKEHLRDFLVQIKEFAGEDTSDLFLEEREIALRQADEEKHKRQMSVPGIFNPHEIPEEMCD

The compounds below were run against XPO1 (intron 15 mScarlet tag, HAP1) (UniProt O14980) (assay: XPO1 fluorescence intensity change vs DMSO (log2 fold change); higher = more XPO1 protein). Settings: 6 h.
COc1cc2nccc(Oc3ccc(NC(=O)C4(C(=O)Nc5ccc(F)cc5)CC4)cc3)c2cc1OC [Cabozantinib] (20 µM) was tested, and the “XPO1 fluorescence intensity change (log2)” value was 0.0849. For CC(C)C[C@H](NC(=O)[C@@H](Cc1c[nH]c2ccccc12)NC(=O)[C@H](Cc1ccc(O)cc1)NC(=O)[C@H](CO)NC(=O)[C@H](Cc1c[nH]c2ccccc12)NC(=O)[C@H](Cc1c[nH]cn1)NC(=O)[C@@H]1CCC(=O)N1)C(=O)N[C@@H](CCCNC(=N)N)C(=O)N1CCC[C@H]1C(=O)NCC(N)=O [Triptorelin] (20 µM), the “XPO1 fluorescence intensity change (log2)” value was -0.148. CC(C)C[C@H](NC(=O)CNC(=O)c1cc(Cl)ccc1Cl)B(O)O [Ixazomib] (1 µM) was tested, and the “XPO1 fluorescence intensity change (log2)” value was -0.0762. With CN(C)CCOc1ccc(/C(=C(/CCCl)c2ccccc2)c2ccccc2)cc1 [Toremifene] (20 µM) the “XPO1 fluorescence intensity change (log2)” value was -0.0179. CO/N=C(\C(=O)N[C@@H]1C(=O)N2C(C(=O)O)=C(CSc3nnnn3C)CS[C@H]12)c1csc(N)n1 [Cefmenoxime] (10 µM) was tested, and the “XPO1 fluorescence intensity change (log2)” value was 0.219. O.O.O.O.O=C([O-])CC(O)(CC(=O)[O-])C(=O)[O-].[Li+].[Li+].[Li+] [Lithium Citrate] (10 µM) was tested, and the “XPO1 fluorescence intensity change (log2)” value was 0.0886. For Cc1nnc(C(C)C)n1C1C[C@H]2CC[C@@H](C1)N2CC[C@H](NC(=O)C1CCC(F)(F)CC1)c1ccccc1 (stereo in doubt) [Maraviroc] (10 µM), the “XPO1 fluorescence intensity change (log2)” value was 0.0878. With C#C[C@]1(O)CC[C@H]2[C@@H]3CCC4=CC(=O)CC[C@@H]4[C@H]3CC[C@@]21CC [Levonorgestrel] (9.99976 µM) the “XPO1 fluorescence intensity change (log2)” value was 0.103. NCCC(O)(P(=O)(O)O)P(=O)(O)O [Pamidronic Acid] (10 µM) was tested, and the “XPO1 fluorescence intensity change (log2)” value was 0.136. With CCNC(=O)[C@@H]1CCCN1C(=O)[C@H](CCCNC(=N)N)NC(=O)[C@H](CC(C)C)NC(=O)[C@@H](CC(C)C)NC(=O)[C@H](Cc1ccc(O)cc1)NC(=O)[C@H](CO)NC(=O)[C@H](Cc1c[nH]c2ccccc12)NC(=O)[C@H](Cc1c[nH]cn1)NC(=O)[C@@H]1CCC(=O)N1 [Leuprolide] (20 µM) the “XPO1 fluorescence intensity change (log2)” value was -0.0924. With CCC1(c2ccccc2)C(=O)NCNC1=O [Primidone] (10 µM) the “XPO1 fluorescence intensity change (log2)” value was 0.048. In the case of C/C(O)=C(\C#N)C(=O)Nc1ccc(C(F)(F)F)cc1 [Teriflunomide (A77 1726)] (10 µM), the “XPO1 fluorescence intensity change (log2)” value is reported as -0.182. In the case of CC(=O)Nc1cccc(-n2c(=O)n(C3CC3)c(=O)c3c(Nc4ccc(I)cc4F)n(C)c(=O)c(C)c32)c1 [Trametinib] (10 µM), the “XPO1 fluorescence intensity change (log2)” value is reported as 0.206. In the case of C[C@]12CC[C@@H]3c4ccc(O)cc4C[C@@H](CCCCCCCCC[S+]([O-])CCCC(F)(F)C(F)(F)F)[C@H]3[C@@H]1CC[C@@H]2O (some centres undefined) [Fulvestrant] (20 µM), the “XPO1 fluorescence intensity change (log2)” value is reported as 0.235. In the case of CC/C(=C(\c1ccccc1)c1ccc(OCCN(C)C)cc1)c1ccccc1 [Tamoxifen] (20 µM), the “XPO1 fluorescence intensity change (log2)” value is reported as 0.103. In the case of C[C@@H](NCCCc1cccc(C(F)(F)F)c1)c1cccc2ccccc12 [Cinacalcet] (10 µM), the “XPO1 fluorescence intensity change (log2)” value is reported as 0.126. With NC(=O)c1ncn([C@@H]2O[C@H](COP(=O)(O)OP(=O)(O)OP(=O)(O)O)[C@@H](O)[C@H]2O)n1 [Ribavirin 5'-Triphosphate] (10 µM) the “XPO1 fluorescence intensity change (log2)” value was 0.00902. For CC(C)(C#N)c1cc(Cn2cncn2)cc(C(C)(C)C#N)c1 [Anastrozole] (20 µM), the “XPO1 fluorescence intensity change (log2)” value was -0.306. With Clc1ccc2c(c1)C(N1CCNCC1)=Nc1ccccc1O2 [Amoxapine] (10.00000745 µM) the “XPO1 fluorescence intensity change (log2)” value was 0.242. For C#CCC(Cc1cnc2nc(N)nc(N)c2n1)c1ccc(C(=O)N[C@@H](CCC(=O)O)C(=O)O)cc1 (some centres undefined) [Pralatrexate] (0.0871 µM), the “XPO1 fluorescence intensity change (log2)” value was -0.018 ± 0.066. With CCCN[C@H]1CCc2nc(N)sc2C1 [Pramipexole] (10.00012856 µM) the “XPO1 fluorescence intensity change (log2)” value was -0.103. For CC[C@]1(O)C[C@@H]2CN(CCc3c([nH]c4ccccc34)[C@@](C(=O)OC)(c3cc4c(cc3OC)N(C)[C@H]3[C@@](O)(C(=O)OC)[C@H](OC(C)=O)[C@]5(CC)C=CCN6CC[C@]43[C@@H]65)C2)C1 [Vinblastine (sulfate)] (10 µM), the “XPO1 fluorescence intensity change (log2)” value was 0.183. In the case of CC(C)[C@@H]1NC(=O)[C@H](CCCCN)NC(=O)[C@@H](Cc2c[nH]c3ccccc23)NC(=O)[C@H](Cc2ccc(O)cc2)NC(=O)[C@@H](NC(=O)[C@H](N)Cc2ccc3ccccc3c2)CSSC[C@@H](C(=O)N[C@H](C(N)=O)[C@@H](C)O)NC1=O [Lanreotide Acetate] (20 µM), the “XPO1 fluorescence intensity change (log2)” value is reported as -0.166. In the case of Nc1ccn([C@H]2CC[C@@H](COP(=O)(O)OP(=O)(O)OP(=O)(O)O)O2)c(=O)n1 [Dideoxycytidine 5'-Triphosphate (Ddctp)] (10 µM), the “XPO1 fluorescence intensity change (log2)” value is reported as 0.0629. With CC(C)[C@H]1CC[C@H](C(=O)N[C@H](Cc2ccccc2)C(=O)O)CC1 [Nateglinide] (10 µM) the “XPO1 fluorescence intensity change (log2)” value was -0.123. For CC(=O)O[C@H]1CC[C@@]2(C)C(=CC[C@@H]3[C@@H]2CC[C@]2(C)C(c4cccnc4)=CC[C@@H]32)C1 [Abiraterone Acetate] (20 µM), the “XPO1 fluorescence intensity change (log2)” value was 0.0304. Nc1nc(F)nc2c1ncn2[C@@H]1O[C@H](CO)[C@@H](O)[C@@H]1O [Fludarabine] (9.99886 µM) was tested, and the “XPO1 fluorescence intensity change (log2)” value was 0.0186. With C[C@]12CCC(=O)C=C1C=C[C@@H]1[C@@H]2CC[C@@]2(C)[C@H]1CC[C@@]21CCC(=O)O1 [Canrenone] (9.99944 µM) the “XPO1 fluorescence intensity change (log2)” value was 0.00941. With COc1cc([C@@H]2c3cc4c(cc3[C@@H](O[C@@H]3O[C@@H]5CO[C@@H](C)O[C@H]5[C@H](O)[C@H]3O)[C@H]3COC(=O)[C@H]23)OCO4)cc(OC)c1O [Etoposide] (20 µM) the “XPO1 fluorescence intensity change (log2)” value was 0.0296. In the case of OC(CCN1CCCCC1)(c1ccccc1)C1CCCCC1 (centres undefined) [Trihexyphenidyl] (10.00006277 µM), the “XPO1 fluorescence intensity change (log2)” value is reported as 0.00837. In the case of Clc1ccc(C(c2ccc(Cl)cc2)N2CCNCC2)cc1 (10 µM), the “XPO1 fluorescence intensity change (log2)” value is reported as -0.154. In the case of CC[C@]1(O)C[C@H]2CN(CCc3c([nH]c4ccccc34)[C@@](C(=O)OC)(c3cc4c(cc3OC)N(C=O)[C@H]3[C@@](O)(C(=O)OC)[C@H](OC(C)=O)[C@]5(CC)C=CCN6CC[C@]43[C@@H]65)C2)C1 [Vincristine] (0.246914 µM), the “XPO1 fluorescence intensity change (log2)” value is reported as 0.0178. With CC[C@]1(O)C[C@@H]2CN(CCc3c([nH]c4ccccc34)[C@@](C(=O)OC)(c3cc4c(cc3OC)N(C)[C@H]3[C@@](O)(C(=O)OC)[C@H](OC(C)=O)[C@]5(CC)C=CCN6CC[C@]43[C@@H]65)C2)C1 [Vinblastine] (20 µM) the “XPO1 fluorescence intensity change (log2)” value was 0.211. For CC[C@@]1(O)C(=O)OCc2c1cc1n(c2=O)Cc2cc3c(CN(C)C)c(O)ccc3nc2-1 [Topotecan hydrochloride hydrate] (20 µM), the “XPO1 fluorescence intensity change (log2)” value was -0.209. With Cc1nc(=O)c2cc(CN(C)c3ccc(C(=O)N[C@@H](CCC(=O)O)C(=O)O)s3)ccc2[nH]1 [Raltitrexed] (20 µM) the “XPO1 fluorescence intensity change (log2)” value was -0.0568. For Cn1nnc2c(C(N)=O)ncn2c1=O [Temozolomide] (20 µM), the “XPO1 fluorescence intensity change (log2)” value was 0.171. COc1c(OCCCN2CCOCC2)ccc2c1N=C(NC(=O)c1cnc(N)nc1)N1CCN=C21 [Copanlisib] (10 µM) was tested, and the “XPO1 fluorescence intensity change (log2)” value was 0.145. O=C1C(O)=C([C@H]2CC[C@H](c3ccc(Cl)cc3)CC2)C(=O)c2ccccc21 [Atovaquone] (10 µM) was tested, and the “XPO1 fluorescence intensity change (log2)” value was 0.00408. COc1cc2ncnc(Nc3ccc(F)c(Cl)c3)c2cc1OCCCN1CCOCC1 [Gefitinib] (20 µM) was tested, and the “XPO1 fluorescence intensity change (log2)” value was -0.0432.
